{"source": "PubChem BioAssay AID1259405 (NCATS, 2018)", "aim": "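Mouse-designed siRNAs used to find CHO productivity engineering targets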 (primary screen)", "cells": "Chinese hamster CHO-K1 ovary cells with stable secreted eGFP expression", "knock-down reagent": "single siRNA against mouse genes, 0.8 pmol siRNA per well (2 µl of 400 nM stock)", "duration": "3 days", "detection": "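Per-well intracellular GFP measured by laser scanning cytometry, plus viability from ATP luminescence, each relative to plate median of non-targeting control wells, in %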", "scale": "GFP, % of control: higher = more GFP per well, higher productivity; viability (ATP), % of control: higher = more viable cells (more ATP)", "call rule": "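Called active when intracellular GFP, relative to negative control, is at or above 120%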", "note": "Shown is one part, drawn at random, of about 50,000 reagents. About 4,000 of them (8%) were called active. 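Mouse siRNA library applied to hamster cells; one well for each siRNA.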 Unmarked entries are inactive. The numbers tell different reagents against one gene apart."}
{"gene knocked down":"H2bc3 (H2B clustered histone 3)","reagent":1,"GFP, % of control":92.6,"viability (ATP), % of control":60.3}
{"gene knocked down":"H2bc3 (H2B clustered histone 3)","reagent":2,"GFP, % of control":"132 (active)","viability (ATP), % of control":76.9}
{"gene knocked down":"H2bc3 (H2B clustered histone 3)","reagent":3,"GFP, % of control":95.6,"viability (ATP), % of control":77.1}
{"gene knocked down":"Nptx1 (neuronal pentraxin 1)","reagent":1,"GFP, % of control":111,"viability (ATP), % of control":112}
{"gene knocked down":"Nptx1 (neuronal pentraxin 1)","reagent":2,"GFP, % of control":68.8,"viability (ATP), % of control":83.3}
{"gene knocked down":"Hes5 (hes family bHLH transcription factor 5)","reagent":1,"GFP, % of control":75.8,"viability (ATP), % of control":76}
{"gene knocked down":"Hes5 (hes family bHLH transcription factor 5)","reagent":2,"GFP, % of control":87.7,"viability (ATP), % of control":37.1}
{"gene knocked down":"Hes5 (hes family bHLH transcription factor 5)","reagent":3,"GFP, % of control":93.6,"viability (ATP), % of control":83.8}
{"gene knocked down":"Zbtb38 (zinc finger and BTB domain containing 38)","reagent":1,"GFP, % of control":70,"viability (ATP), % of control":76.9}
{"gene knocked down":"Zbtb38 (zinc finger and BTB domain containing 38)","reagent":2,"GFP, % of control":90.8,"viability (ATP), % of control":72.1}
{"gene knocked down":"Prkd1 (protein kinase D1)","reagent":1,"GFP, % of control":65.9,"viability (ATP), % of control":72.1}
{"gene knocked down":"Hhipl2 (hedgehog interacting protein-like 2)","reagent":1,"GFP, % of control":86.3,"viability (ATP), % of control":87}
{"gene knocked down":"Hhipl2 (hedgehog interacting protein-like 2)","reagent":2,"GFP, % of control":80.6,"viability (ATP), % of control":79}
{"gene knocked down":"Hhipl2 (hedgehog interacting protein-like 2)","reagent":3,"GFP, % of control":105,"viability (ATP), % of control":151}
{"gene knocked down":"Or13ae2 (olfactory receptor family 13 subfamily AE member 2)","reagent":1,"GFP, % of control":57.9,"viability (ATP), % of control":42.9}
{"gene knocked down":"Or13ae2 (olfactory receptor family 13 subfamily AE member 2)","reagent":2,"GFP, % of control":76.1,"viability (ATP), % of control":78.6}
{"gene knocked down":"Or13ae2 (olfactory receptor family 13 subfamily AE member 2)","reagent":3,"GFP, % of control":42.1,"viability (ATP), % of control":69}

In a second layout: results already given.
Prkd1 (protein kinase D1)
- GFP, % of control: 65.9
- viability (ATP), % of control: 72.1

Hhipl2 (hedgehog interacting protein-like 2) #1
- GFP, % of control: 86.3
- viability (ATP), % of control: 87
